Measured values from the supplement of paper PMC10735217.
Counter-ions that a name gives are not always drawn. The list shows a part of the results. This data set is noisy: repeats of one test often differ as much as different tests do.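 The human kidney-derived cells carry a stably integrated construct of eight TEAD-binding elements driving luciferase, read by luminescence in a drug-repurposing library screen. A compound counts as a hit when its signal is more than five robust Z scores above the plate mean.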

Test system: HEK293A TEAD-LUC reporter
Assay: TEAD-luciferase reporter activity (YAP activation), robust Z score vs plate; higher = stronger YAP/TEAD activation
Details: 24 h

Compound | TEAD-luciferase reporter activity (compound concentration: 200 nM) | TEAD-luciferase reporter activity (compound concentration: 2 uM) | TEAD-luciferase reporter activity (compound concentration: 10 uM)
COc1c(N2CCC(=O)CC2)c(F)cc2c(=O)c(C(=O)O)cn(C3CC3)c12 | inactive: -0.993 | inactive: -1.17 | inactive: 2.94
CCCc1nc(C)n2[nH]c(=O)nc2c1Cc1ccc(-c2ccccc2-c2nnn[nH]2)cc1 | inactive: -1.32 |  | inactive: 2.29
Brc1ccc(NC2C3CC4CC(C3)CC2C4)cc1 (centres undefined) [Ladasten] | inactive: -0.827 | inactive: -0.451 | inactive: -1.3
C[C@]1(O)C[C@@H](c2nc(-c3ccc4ccc(-c5ccccc5)nc4c3)c3c(N)nccn32)C1 [Linsitinib] | inactive: -1.15 | inactive: 0.321 | inactive: -0.289
Cc1nc2ccc(Oc3ccccc3)cc2c2c1CCN2c1ccc(C(C)C)cc1 | inactive: -0.996 | inactive: 2.28 | inactive: -0.561
Cn1cnc2c(F)c(Nc3ccc(Br)cc3Cl)c(C(=O)NOCCO)cc21 [selumetinib] | inactive: -1.28 | inactive: 1.12 | inactive: -1.03
N=C(N)NN1Cc2c(Cl)ccc(Cl)c2C1 | inactive: 1.84 | inactive: -0.337 | inactive: -0.18
CC(C)C[C@H](NC(=O)[C@H](CC(N)=O)NC(=O)[C@H](CCCNC(=N)N)NC(=O)[C@H](CC(C)C)NC(=O)[C@H](CO)NC(=O)[C@H](CCC(=O)O)NC(=O)[C@@H](N)CCCNC(=N)N)C(=O)N[C@@H](CCCNC(=N)N)C(=O)NCC(=O)N[C@@H](Cc1ccc(O)cc1)C(=O)O | inactive: -0.102 | inactive: 1.2 | inactive: 0.386
CNCCC(Oc1ccc(C(F)(F)F)cc1)c1ccccc1 (centres undefined) | inactive: 0.06 |  | inactive: -0.213
CNCCC(Oc1ccc(C(F)(F)F)cc1)c1ccccc1 (centres undefined) [fluoxetine HCl] |  | inactive: -1.79 | 
C[C@@H](C1CCCCC1)n1c(-c2cc3c(cc2Br)OCO3)nc2cc(C(=O)Nc3ccc(C#N)cc3)ccc21 | inactive: -0.328 |  | inactive: -0.526
O=C(O)Cc1cc(I)c(Oc2ccc(O)c(I)c2)c(I)c1 [Triiodothyroacetic] |  | inactive: -1.03 | 
O=C(O)Cc1cc(I)c(Oc2ccc(O)c(I)c2)c(I)c1 [_q_Tiratricol, 3,3',5-triiodothyroacetic acid_q_] | inactive: -0.641 |  | inactive: -0.394
CC(=O)OCC(=O)[C@@]1(O)CC[C@H]2[C@@H]3CCC4=CC(=O)C=C[C@]4(C)[C@H]3[C@@H](O)C[C@@]21C | inactive: -1.12 |  | inactive: 0.519
CC(=O)OCC(=O)[C@@]1(O)CC[C@H]2[C@@H]3CCC4=CC(=O)C=C[C@]4(C)[C@H]3[C@@H](O)C[C@@]21C [Prednisolone acetate] |  | inactive: -1.22 | 
CCCOc1sc(C(=O)N2CCC(c3cc(CC)ccc3F)CC2)c(C)c1Br | inactive: -0.83 | inactive: -1.36 | inactive: -1.32
O=C(NCc1cccnc1)c1ccc2nccn2c1 | inactive: -2.44 |  | inactive: 0.0253
O=c1[nH]c(=O)n(C2CC(O)C(CO)O2)cc1Br (centres undefined) [5-bromodeoxyuridine] | inactive: -0.799 | inactive: 0.259 | inactive: -0.49
O=C(N[C@H](CO)[C@H](O)c1ccc([N+](=O)[O-])cc1)C(Cl)Cl | inactive: 3.99 |  | inactive: 0.795
O=C(N[C@H](CO)[C@H](O)c1ccc([N+](=O)[O-])cc1)C(Cl)Cl [Chloramphenicol] |  | inactive: 0.349 | 
CC(C)=CCOc1cc(NC(=S)c2ccccn2)ccc1Cl | inactive: -0.625 | inactive: -0.0606 | inactive: 0.293
O=C(/C=C/c1ccc2ccc(C(F)(F)F)cc2n1)c1ccncc1 | inactive: 0.591 | inactive: 0.0891 | inactive: 0.0398
CNC(=O)c1ccc(C)c(-n2c(C)cc(OCc3ccc(F)cc3F)c(Br)c2=O)c1 | inactive: -0.9 | inactive: -1.68 | inactive: -0.62

Another view of part of the listing above.
Compound	TEAD-luciferase reporter activity (compound concentration: 200 nM)	TEAD-luciferase reporter activity (compound concentration: 2 uM)	TEAD-luciferase reporter activity (compound concentration: 10 uM)
Brc1ccc(NC2C3CC4CC(C3)CC2C4)cc1 (centres undefined) [Ladasten]	inactive: -0.827	inactive: -0.451	inactive: -1.3
C[C@]1(O)C[C@@H](c2nc(-c3ccc4ccc(-c5ccccc5)nc4c3)c3c(N)nccn32)C1 [Linsitinib]	inactive: -1.15	inactive: 0.321	inactive: -0.289
